Values quoted from earlier work in patent publication US20060252698A1, “Compounds for inhibiting cathepsin activity” (priority 2005, published 2006).
Where a name gives a salt, the structure may show the parent alone. For at least one compound, name, drawing or mass did not settle the structure.

Tested on: retinal neovascularization
Settings: mice; cited from earlier work

SMILES	development of retinal neovascularization
CN(CCOc1ccc(CC2SC(=O)NC2=O)cc1)c1ccccn1 (centres unmarked) [rosiglitazone maleate, -5-[[4-[2-(methyl-2-pyridinylamino)ethoxy]phenyl]methyl]-2,4-thiazolidinedione, (Z) -2-butenedioate) (1:1)]	inhibit the development of retinal neovascularization
Cc1c(C)c2c(c(C)c1O)CCC(C)(COc1ccc(CC3SC(=O)NC3=O)cc1)O2 (centres unmarked) [troglitazone]	inhibit the development of retinal neovascularization
